From the supplement of paper PMC6411743
± gives the standard deviation of the averaged measurements. The entries are a selection whose mix differs from that of the whole data set.

By UniProt entry, the sequences of proteins in these tests, tags left out. Where a name states a change or a piece, a line headed by the entry shows the natural chain unless it says otherwise.
UniProt Q06265, whole entry: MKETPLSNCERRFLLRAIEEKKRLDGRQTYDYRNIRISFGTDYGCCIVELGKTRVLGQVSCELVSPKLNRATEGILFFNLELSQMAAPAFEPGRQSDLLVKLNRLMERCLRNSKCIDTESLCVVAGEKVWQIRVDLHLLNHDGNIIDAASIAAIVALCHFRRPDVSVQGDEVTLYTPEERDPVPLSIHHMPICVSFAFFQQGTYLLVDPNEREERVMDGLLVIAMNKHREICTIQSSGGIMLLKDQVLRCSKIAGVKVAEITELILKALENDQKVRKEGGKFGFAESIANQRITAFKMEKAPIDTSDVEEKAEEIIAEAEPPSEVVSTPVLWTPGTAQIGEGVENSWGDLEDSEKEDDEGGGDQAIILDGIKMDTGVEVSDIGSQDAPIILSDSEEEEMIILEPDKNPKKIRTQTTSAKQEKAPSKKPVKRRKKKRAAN
UniProt P78332: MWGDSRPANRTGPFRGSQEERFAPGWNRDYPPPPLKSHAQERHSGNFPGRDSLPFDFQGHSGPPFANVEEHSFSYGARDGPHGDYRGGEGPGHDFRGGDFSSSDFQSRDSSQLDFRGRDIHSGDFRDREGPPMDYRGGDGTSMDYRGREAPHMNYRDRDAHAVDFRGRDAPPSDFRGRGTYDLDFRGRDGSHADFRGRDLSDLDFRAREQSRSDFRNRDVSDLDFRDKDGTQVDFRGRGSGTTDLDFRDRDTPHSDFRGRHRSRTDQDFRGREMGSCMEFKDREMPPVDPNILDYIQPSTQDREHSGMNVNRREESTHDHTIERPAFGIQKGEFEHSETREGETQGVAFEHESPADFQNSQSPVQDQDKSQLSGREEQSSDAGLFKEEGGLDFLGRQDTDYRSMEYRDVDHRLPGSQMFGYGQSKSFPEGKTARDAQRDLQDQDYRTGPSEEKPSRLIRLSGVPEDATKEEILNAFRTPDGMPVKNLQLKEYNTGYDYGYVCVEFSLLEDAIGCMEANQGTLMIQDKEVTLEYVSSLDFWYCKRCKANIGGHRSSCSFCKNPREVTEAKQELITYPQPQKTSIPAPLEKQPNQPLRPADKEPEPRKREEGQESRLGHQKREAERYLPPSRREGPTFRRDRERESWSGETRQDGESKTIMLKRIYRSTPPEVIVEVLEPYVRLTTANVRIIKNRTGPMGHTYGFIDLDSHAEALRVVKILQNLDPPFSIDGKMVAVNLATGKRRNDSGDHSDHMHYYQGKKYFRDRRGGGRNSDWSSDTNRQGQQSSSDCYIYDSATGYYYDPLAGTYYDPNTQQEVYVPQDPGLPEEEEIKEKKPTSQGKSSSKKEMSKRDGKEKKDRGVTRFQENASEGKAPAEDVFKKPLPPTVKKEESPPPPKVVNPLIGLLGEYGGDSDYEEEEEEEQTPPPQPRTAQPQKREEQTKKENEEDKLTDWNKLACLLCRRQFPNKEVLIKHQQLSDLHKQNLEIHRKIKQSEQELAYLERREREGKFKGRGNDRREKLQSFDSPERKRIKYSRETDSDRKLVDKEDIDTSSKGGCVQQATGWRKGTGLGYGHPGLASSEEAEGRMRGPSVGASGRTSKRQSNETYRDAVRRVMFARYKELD
UniProt P61960, whole entry: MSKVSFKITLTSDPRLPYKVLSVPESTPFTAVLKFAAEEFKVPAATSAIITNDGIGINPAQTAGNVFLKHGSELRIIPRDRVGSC
UniProt P61758, whole entry: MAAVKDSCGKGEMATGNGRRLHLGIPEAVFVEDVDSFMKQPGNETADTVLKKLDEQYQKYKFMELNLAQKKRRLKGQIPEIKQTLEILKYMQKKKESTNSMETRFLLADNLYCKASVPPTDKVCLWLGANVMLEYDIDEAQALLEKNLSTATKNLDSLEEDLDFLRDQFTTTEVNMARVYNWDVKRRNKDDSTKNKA
UniProt Q01543: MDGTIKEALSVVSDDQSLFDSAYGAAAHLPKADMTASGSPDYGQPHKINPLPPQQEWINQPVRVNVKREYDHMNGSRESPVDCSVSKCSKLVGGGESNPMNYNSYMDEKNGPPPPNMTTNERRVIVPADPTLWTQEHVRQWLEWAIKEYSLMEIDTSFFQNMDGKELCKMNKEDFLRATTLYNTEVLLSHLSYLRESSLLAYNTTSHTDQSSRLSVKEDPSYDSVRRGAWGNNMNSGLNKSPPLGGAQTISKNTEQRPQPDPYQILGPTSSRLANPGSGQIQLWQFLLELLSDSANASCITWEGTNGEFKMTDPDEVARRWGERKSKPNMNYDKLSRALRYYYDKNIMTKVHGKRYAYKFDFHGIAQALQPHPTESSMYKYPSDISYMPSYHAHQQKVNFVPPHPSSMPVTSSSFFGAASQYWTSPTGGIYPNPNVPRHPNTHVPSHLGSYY
UniProt P61956, whole entry: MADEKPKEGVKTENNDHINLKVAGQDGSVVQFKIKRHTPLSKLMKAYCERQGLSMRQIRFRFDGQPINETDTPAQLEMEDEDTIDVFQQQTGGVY
UniProt P83436: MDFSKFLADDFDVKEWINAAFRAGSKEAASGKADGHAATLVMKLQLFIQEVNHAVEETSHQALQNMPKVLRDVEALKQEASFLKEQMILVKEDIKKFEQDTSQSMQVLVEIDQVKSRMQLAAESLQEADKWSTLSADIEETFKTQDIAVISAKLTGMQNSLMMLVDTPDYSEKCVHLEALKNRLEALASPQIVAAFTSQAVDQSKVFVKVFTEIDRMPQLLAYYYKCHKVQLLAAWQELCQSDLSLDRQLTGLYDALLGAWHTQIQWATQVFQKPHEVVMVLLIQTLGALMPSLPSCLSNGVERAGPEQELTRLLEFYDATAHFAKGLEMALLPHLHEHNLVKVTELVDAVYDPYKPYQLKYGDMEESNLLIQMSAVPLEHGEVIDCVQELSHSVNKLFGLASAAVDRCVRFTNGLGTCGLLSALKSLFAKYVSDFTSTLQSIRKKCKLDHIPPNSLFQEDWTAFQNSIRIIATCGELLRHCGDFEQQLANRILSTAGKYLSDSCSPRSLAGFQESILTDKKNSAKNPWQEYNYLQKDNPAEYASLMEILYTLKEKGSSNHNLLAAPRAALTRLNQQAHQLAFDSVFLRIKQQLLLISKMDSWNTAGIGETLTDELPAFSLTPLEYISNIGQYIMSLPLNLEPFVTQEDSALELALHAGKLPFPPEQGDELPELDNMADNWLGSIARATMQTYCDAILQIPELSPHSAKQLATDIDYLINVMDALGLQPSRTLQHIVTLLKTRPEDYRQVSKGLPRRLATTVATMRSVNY
UniProt P55789: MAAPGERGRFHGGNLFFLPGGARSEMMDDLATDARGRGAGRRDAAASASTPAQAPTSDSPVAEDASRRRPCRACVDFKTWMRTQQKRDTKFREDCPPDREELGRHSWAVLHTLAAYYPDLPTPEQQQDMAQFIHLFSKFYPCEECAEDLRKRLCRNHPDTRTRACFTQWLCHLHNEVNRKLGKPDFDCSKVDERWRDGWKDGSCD
UniProt P63313: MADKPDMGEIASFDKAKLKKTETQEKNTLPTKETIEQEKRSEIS
UniProt Q06547, whole entry: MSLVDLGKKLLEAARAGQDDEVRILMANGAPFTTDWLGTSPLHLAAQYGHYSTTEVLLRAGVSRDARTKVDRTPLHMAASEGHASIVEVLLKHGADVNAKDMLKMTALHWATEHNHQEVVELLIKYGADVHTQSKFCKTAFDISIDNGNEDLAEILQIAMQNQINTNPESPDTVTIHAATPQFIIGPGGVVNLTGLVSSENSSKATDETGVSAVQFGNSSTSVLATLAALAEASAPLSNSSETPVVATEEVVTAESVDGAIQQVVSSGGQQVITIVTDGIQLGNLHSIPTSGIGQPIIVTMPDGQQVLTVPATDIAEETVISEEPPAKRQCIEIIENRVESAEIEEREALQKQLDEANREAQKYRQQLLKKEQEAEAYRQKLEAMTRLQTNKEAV
UniProt P62993, whole entry, looked up: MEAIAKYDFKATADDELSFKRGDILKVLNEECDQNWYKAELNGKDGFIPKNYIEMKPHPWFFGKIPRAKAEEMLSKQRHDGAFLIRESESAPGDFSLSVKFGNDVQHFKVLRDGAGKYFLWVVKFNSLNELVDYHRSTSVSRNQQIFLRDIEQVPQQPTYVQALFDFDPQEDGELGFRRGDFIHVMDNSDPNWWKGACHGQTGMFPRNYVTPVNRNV
UniProt P60228, whole entry: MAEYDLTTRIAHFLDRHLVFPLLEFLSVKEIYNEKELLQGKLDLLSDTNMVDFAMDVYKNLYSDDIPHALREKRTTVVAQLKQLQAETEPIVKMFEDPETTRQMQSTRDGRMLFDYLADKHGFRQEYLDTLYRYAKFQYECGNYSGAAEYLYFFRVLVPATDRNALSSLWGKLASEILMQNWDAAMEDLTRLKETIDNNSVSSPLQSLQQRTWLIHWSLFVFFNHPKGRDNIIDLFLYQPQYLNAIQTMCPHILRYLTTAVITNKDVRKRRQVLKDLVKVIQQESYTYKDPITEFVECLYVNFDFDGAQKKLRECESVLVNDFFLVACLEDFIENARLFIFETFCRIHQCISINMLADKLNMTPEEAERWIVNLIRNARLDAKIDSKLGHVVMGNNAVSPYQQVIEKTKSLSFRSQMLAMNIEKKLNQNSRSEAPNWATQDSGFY
UniProt Q05469: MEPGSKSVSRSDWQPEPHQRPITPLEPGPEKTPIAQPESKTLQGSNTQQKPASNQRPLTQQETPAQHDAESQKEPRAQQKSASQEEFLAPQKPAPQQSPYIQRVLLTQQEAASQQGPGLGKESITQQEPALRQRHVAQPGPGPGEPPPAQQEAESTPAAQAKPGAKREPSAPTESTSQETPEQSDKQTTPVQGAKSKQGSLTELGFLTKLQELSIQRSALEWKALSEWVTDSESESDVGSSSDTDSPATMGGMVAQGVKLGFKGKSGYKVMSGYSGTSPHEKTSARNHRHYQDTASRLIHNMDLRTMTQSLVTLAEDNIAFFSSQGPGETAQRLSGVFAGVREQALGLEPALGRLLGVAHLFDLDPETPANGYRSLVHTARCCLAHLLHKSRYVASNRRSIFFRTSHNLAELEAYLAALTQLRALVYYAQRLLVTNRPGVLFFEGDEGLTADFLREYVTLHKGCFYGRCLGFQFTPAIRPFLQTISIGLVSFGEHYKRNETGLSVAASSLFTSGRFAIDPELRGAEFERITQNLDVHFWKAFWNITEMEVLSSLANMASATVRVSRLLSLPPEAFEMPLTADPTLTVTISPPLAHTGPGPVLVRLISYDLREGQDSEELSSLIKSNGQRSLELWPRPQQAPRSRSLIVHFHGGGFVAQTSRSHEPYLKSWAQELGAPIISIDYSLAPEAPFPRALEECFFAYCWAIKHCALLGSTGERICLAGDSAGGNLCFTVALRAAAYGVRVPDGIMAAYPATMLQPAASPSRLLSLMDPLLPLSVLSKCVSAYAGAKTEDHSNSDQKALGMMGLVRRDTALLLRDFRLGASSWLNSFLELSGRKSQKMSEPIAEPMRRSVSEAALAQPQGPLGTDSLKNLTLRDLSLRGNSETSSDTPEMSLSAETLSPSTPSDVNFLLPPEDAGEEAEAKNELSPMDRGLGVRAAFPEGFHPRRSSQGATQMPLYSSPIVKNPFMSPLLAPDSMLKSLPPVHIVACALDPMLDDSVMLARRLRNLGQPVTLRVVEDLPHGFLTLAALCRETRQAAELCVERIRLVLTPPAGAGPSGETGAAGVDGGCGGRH
UniProt P62633: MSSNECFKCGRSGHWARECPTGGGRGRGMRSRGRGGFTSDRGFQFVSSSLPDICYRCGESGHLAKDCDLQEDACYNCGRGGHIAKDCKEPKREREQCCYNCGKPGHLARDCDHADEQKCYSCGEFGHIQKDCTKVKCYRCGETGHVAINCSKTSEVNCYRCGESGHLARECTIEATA
UniProt P56962: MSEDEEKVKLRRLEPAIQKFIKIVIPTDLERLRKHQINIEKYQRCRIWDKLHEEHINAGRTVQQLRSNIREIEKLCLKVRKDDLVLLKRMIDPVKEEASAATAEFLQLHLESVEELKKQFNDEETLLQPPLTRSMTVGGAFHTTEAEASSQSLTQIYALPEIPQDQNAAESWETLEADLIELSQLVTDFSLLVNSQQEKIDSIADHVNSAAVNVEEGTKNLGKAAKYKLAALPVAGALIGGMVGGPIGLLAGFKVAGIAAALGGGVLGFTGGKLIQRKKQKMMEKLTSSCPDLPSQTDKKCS
UniProt Q06587: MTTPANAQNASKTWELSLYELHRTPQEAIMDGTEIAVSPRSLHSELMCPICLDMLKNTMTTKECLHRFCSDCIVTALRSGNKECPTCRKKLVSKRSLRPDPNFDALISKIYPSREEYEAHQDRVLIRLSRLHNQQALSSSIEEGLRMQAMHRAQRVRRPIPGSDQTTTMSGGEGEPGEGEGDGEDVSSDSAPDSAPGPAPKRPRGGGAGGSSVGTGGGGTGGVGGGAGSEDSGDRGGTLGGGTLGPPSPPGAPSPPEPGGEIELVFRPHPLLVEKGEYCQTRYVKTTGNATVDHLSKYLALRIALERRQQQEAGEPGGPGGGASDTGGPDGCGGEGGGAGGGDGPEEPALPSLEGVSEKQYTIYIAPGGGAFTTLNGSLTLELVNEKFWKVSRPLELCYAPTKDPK
UniProt P58546, whole entry: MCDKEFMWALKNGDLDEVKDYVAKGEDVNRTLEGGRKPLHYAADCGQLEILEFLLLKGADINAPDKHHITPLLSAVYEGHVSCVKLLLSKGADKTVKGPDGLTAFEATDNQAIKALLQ

Compound: Nc1ncnc2c1ncn2[C@@H]1O[C@H](COP(=O)(O)OP(=O)(O)NP(=O)(O)O)[C@@H](O)[C@H]1O [adenylyl imidodiphosphate]
Test: NP40-soluble protein abundance relative to vehicle (solubility fold change) (ratio); higher = more soluble protein in presence of AMP-PNP
In short: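 Values are fold changes against the detergent-processed vehicle, based on vsn-normalised intensities. Jurkat crude lysate was treated at eight concentrations from 0.1 to 10 mM (10 min at room temperature, then 3 min at 37 °C), solubilised with 0.8% NP40 and benzonase, ultracentrifuged and analysed by TMT-labelled LC-MS/MS over three independent experiments.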

Target	NP40-soluble protein abundance (concentration: 1mM)	NP40-soluble protein abundance (concentration: 2mM)	NP40-soluble protein abundance (concentration: 4mM)	NP40-soluble protein abundance (concentration: 6mM)	NP40-soluble protein abundance (concentration: 8mM)	NP40-soluble protein abundance (concentration: 10mM)
IGBP1 (UniProt P78318)	0.988 ± 0.052	1.03 ± 0.036	0.962 ± 0.042	0.898 ± 0.01	0.916 ± 0.021	0.859 ± 0.023
UniProt Q06265 and related entries	0.978 ± 0.04	0.95 ± 0.031	1.08 ± 0.1	1.14 ± 0.092	1.22 ± 0.11	1.23 ± 0.17
UniProt P78332 and related entries	1.07 ± 0.029	1.18 ± 0.13	1.14 ± 0.061	1.14 ± 0.09	1.13 ± 0.051	1.19 ± 0.044
UniProt P61960 and related entries	0.981 ± 0.054	1.02 ± 0.1	0.969 ± 0.056	0.9077 ± 0.0081	0.922 ± 0.016	0.884 ± 0.054
VBP1 (UniProt P61758)	0.912 ± 0.051	0.962 ± 0.057	0.885 ± 0.032	0.89 ± 0.048	0.882 ± 0.028	0.866 ± 0.029
UniProt P61978-2|P61978-3	1.02 ± 0.03	1.06 ± 0.019	1.018 ± 0.0014	1.05 ± 0.016	1.02 ± 0.026	1.05 ± 0.044
FLI1 (UniProt Q01543)	1.05 ± 0.025	1.1 ± 0.049	1.08 ± 0.041	1.04 ± 0.029	1.05 ± 0.023	1.07 ± 0.049
PPP1CA (UniProt P62136)	1.017 ± 0.0096	0.963 ± 0.08	0.986 ± 0.041	0.9945 ± 0.0053	0.994 ± 0.049	0.976 ± 0.044
PPP2CA (UniProt P67775)	0.987 ± 0.02	0.9847 ± 0.0024	0.889 ± 0.034	0.967 ± 0.069	0.9346 ± 0.0071	0.913 ± 0.022
UniProt P61956	1.02 ± 0.025	1.03 ± 0.024	0.962 ± 0.02	0.916 ± 0.063	0.902 ± 0.045	0.877 ± 0.048
FKBP4 (UniProt Q02790)	0.98 ± 0.023	0.942 ± 0.032	0.959 ± 0.015	0.988 ± 0.022	0.976 ± 0.035	0.966 ± 0.02
UniProt Q02809 and related entries	1.04 ± 0.061	1.04 ± 0.028	1.03 ± 0.067	1.05 ± 0.067	1.05 ± 0.066	1.04 ± 0.074
COG7 (UniProt P83436)	1.011 ± 0.0039	1.02 ± 0.035	0.999 ± 0.032	0.931 ± 0.042	0.919 ± 0.023	0.941 ± 0.031
RHOA (UniProt P61586)	1.08 ± 0.025	1.12 ± 0.14	1.04 ± 0.051	1.01 ± 0.048	0.96 ± 0.01	1.05 ± 0.049
UniProt P62195	0.892 ± 0.068	0.86 ± 0.064	0.887 ± 0.12	0.92 ± 0.053	0.932 ± 0.055	0.917 ± 0.12
UniProt Q00653 and related entries	1.01 ± 0.022	1.01 ± 0.038	1 ± 0.048	0.968 ± 0.044	0.957 ± 0.029	0.954 ± 0.037
UniProt P62241 and related entries	0.942 ± 0.068	0.883 ± 0.062	0.871 ± 0.12	0.873 ± 0.12	0.778 ± 0.06	0.836 ± 0.14
UniProt Q06609 and related entries	0.997 ± 0.024	1.03 ± 0.09	1 ± 0.031	1 ± 0.021	0.997 ± 0.051	1.01 ± 0.055
CDR2 (UniProt Q01850)	0.959 ± 0.01	0.943 ± 0.0068	0.964 ± 0.048	0.9699 ± 0.001	0.958 ± 0.015	0.971 ± 0.025
UniProt P55789 and related entries	1.01 ± 0.056	1.18 ± 0.14	1.07 ± 0.094	0.995 ± 0.1	1.04 ± 0.071	0.948 ± 0.09

Target	NP40-soluble protein abundance (concentration: 1mM)	NP40-soluble protein abundance (concentration: 2mM)	NP40-soluble protein abundance (concentration: 4mM)	NP40-soluble protein abundance (concentration: 6mM)	NP40-soluble protein abundance (concentration: 8mM)	NP40-soluble protein abundance (concentration: 10mM)
UniProt P62834	1.02 ± 0.015	0.958 ± 0.055	1.03 ± 0.022	0.991 ± 0.029	1.03 ± 0.02	1.027 ± 0.0062
UniProt Q01826 and related entries	1.03 ± 0.033	1.07 ± 0.05	1.03 ± 0.051	0.985 ± 0.037	0.985 ± 0.026	1.01 ± 0.05
UniProt P61962	0.989 ± 0.013	0.913 ± 0.12	0.945 ± 0.042	0.932 ± 0.022	0.958 ± 0.013	0.898 ± 0.034
UniProt P60866 and related entries	0.932 ± 0.061	0.906 ± 0.058	0.883 ± 0.13	0.91 ± 0.04	0.889 ± 0.043	0.929 ± 0.13
UniProt P62917	1.04 ± 0.076	1.03 ± 0.043	0.99 ± 0.078	0.975 ± 0.075	0.835 ± 0.077	1.06 ± 0.16
UniProt P62805	0.903 ± 0.073	0.951 ± 0.018	0.964 ± 0.046	1.12 ± 0.18	1.25 ± 0.16	1.52 ± 0.25
HNRNPH2 (UniProt P55795)	0.9889 ± 0.0045	0.934 ± 0.086	0.946 ± 0.028	0.947 ± 0.023	0.9566 ± 0.0082	0.908 ± 0.019
UniProt P60900 and related entries	0.914 ± 0.025	0.867 ± 0.069	0.875 ± 0.07	0.95 ± 0.057	0.953 ± 0.082	0.953 ± 0.12
UniProt P63313	1.05 ± 0.036	1.03 ± 0.11	1.01 ± 0.043	0.981 ± 0.039	0.949 ± 0.027	0.956 ± 0.06
UniProt P60953 and related entries	1.06 ± 0.038	1.04 ± 0.057	0.988 ± 0.037	0.997 ± 0.02	0.984 ± 0.031	0.965 ± 0.025
UniProt P61289 and related entries	0.983 ± 0.064	0.955 ± 0.12	0.808 ± 0.23	0.886 ± 0.17	0.999 ± 0.037	0.968 ± 0.1
TBPL1 (UniProt P62380)	0.955 ± 0.031	0.932 ± 0.045	0.963 ± 0.021	0.995 ± 0.071	1.01 ± 0.059	0.989 ± 0.038
UniProt P62269	0.938 ± 0.059	0.929 ± 0.033	0.906 ± 0.081	0.876 ± 0.05	0.785 ± 0.034	0.861 ± 0.087
UniProt Q06547 and related entries	1.02 ± 0.05	1.06 ± 0.06	1.03 ± 0.071	0.981 ± 0.035	0.954 ± 0.035	0.993 ± 0.12
UniProt P63220 and related entries	0.961 ± 0.06	0.995 ± 0.068	0.886 ± 0.086	0.882 ± 0.1	0.79 ± 0.056	0.851 ± 0.12
UniProt P55771	0.998 ± 0.028	1.01 ± 0.088	0.979 ± 0.022	0.998 ± 0.032	1 ± 0.022	1.01 ± 0.022
GRB2 (UniProt P62993)	0.985 ± 0.035	0.943 ± 0.046	0.946 ± 0.023	0.972 ± 0.01	0.944 ± 0.037	0.918 ± 0.024
UniProt P61964	1.002 ± 0.0068	1.03 ± 0.017	1.028 ± 0.0054	1.07 ± 0.04	1.1 ± 0.039	1.12 ± 0.05
UniProt P61081	1.01 ± 0.019	1.004 ± 0.0095	0.972 ± 0.025	0.984 ± 0.02	0.96 ± 0.028	0.964 ± 0.049
UniProt P60228	1.04 ± 0.073	1.04 ± 0.077	1.1 ± 0.11	1.18 ± 0.12	1.24 ± 0.12	1.33 ± 0.2

Target	NP40-soluble protein abundance (concentration: 1mM)	NP40-soluble protein abundance (concentration: 2mM)	NP40-soluble protein abundance (concentration: 4mM)	NP40-soluble protein abundance (concentration: 6mM)	NP40-soluble protein abundance (concentration: 8mM)	NP40-soluble protein abundance (concentration: 10mM)
UniProt P84085	0.966 ± 0.024	0.905 ± 0.067	0.943 ± 0.025	0.962 ± 0.039	0.9679 ± 0.0089	0.94 ± 0.018
UniProt Q06330 and related entries	0.972 ± 0.076	0.964 ± 0.032	1.03 ± 0.041	1.07 ± 0.12	1.13 ± 0.1	1.1 ± 0.1
UniProt Q01082 and related entries	1.05 ± 0.028	1.08 ± 0.035	1.05 ± 0.019	1.08 ± 0.06	1.05 ± 0.032	1.09 ± 0.056
PEX3 (UniProt P56589)	1 ± 0.039	0.998 ± 0.028	0.994 ± 0.029	0.9633 ± 0.009	0.975 ± 0.032	0.985 ± 0.015
UniProt Q05469 and related entries	1.012 ± 0.0077	0.994 ± 0.021	1.003 ± 0.0044	0.9941 ± 0.0017	1.003 ± 0.01	0.989 ± 0.016
SPAG1 (UniProt Q07617)	0.974 ± 0.019	1.02 ± 0.034	0.986 ± 0.028	0.98 ± 0.011	1 ± 0.013	1.01 ± 0.022
UniProt P62633 and related entries	1.03 ± 0.044	1.11 ± 0.081	1.02 ± 0.1	0.996 ± 0.031	1.03 ± 0.037	0.984 ± 0.053
STX17 (UniProt P56962)	0.966 ± 0.031	1.02 ± 0.11	0.973 ± 0.039	1.01 ± 0.08	1.01 ± 0.069	1.03 ± 0.042
RING1 (UniProt Q06587)	1.03 ± 0.018	1.07 ± 0.02	1.07 ± 0.026	1.07 ± 0.036	1.08 ± 0.031	1.12 ± 0.046
UniProt Q01432-5	0.991 ± 0.012	1.01 ± 0.014	1.02 ± 0.021	1 ± 0.03	0.9839 ± 0.0084	0.99 ± 0.04
UniProt P61088	1.01 ± 0.026	0.977 ± 0.032	0.987 ± 0.079	1.03 ± 0.068	1.06 ± 0.061	1.05 ± 0.059
MTPN (UniProt P58546)	0.959 ± 0.04	1.08 ± 0.11	0.943 ± 0.029	0.981 ± 0.011	0.892 ± 0.05	0.928 ± 0.084
UniProt Q00536 and related entries	0.91 ± 0.027	0.965 ± 0.023	0.909 ± 0.033	0.977 ± 0.052	0.941 ± 0.049	0.931 ± 0.067
ACY1 (UniProt Q03154)	1.01 ± 0.024	0.961 ± 0.06	1.01 ± 0.018	0.969 ± 0.02	1.002 ± 0.0056	0.975 ± 0.033
UniProt P61009	1.06 ± 0.058	1.06 ± 0.14	1.06 ± 0.086	1.19 ± 0.17	1.22 ± 0.062	1.25 ± 0.13
UniProt Q00613 and related entries	1.03 ± 0.012	1.03 ± 0.033	1.02 ± 0.04	0.993 ± 0.051	0.989 ± 0.023	0.97 ± 0.044
NUP107 (UniProt P57740)	0.986 ± 0.011	0.962 ± 0.022	0.988 ± 0.04	0.955 ± 0.012	0.947 ± 0.019	0.975 ± 0.051
SORD (UniProt Q00796)	0.951 ± 0.031	0.963 ± 0.024	0.958 ± 0.043	1.08 ± 0.094	1.06 ± 0.054	1.09 ± 0.022
PFKP (UniProt Q01813)	0.969 ± 0.021	0.902 ± 0.11	0.963 ± 0.037	1.01 ± 0.025	1.04 ± 0.019	1.01 ± 0.054
DHODH (UniProt Q02127)	0.99 ± 0.032	0.919 ± 0.064	0.994 ± 0.016	0.967 ± 0.027	0.976 ± 0.014	0.956 ± 0.021

Exported as labelled records: entries from further up
UniProt P78332 and related entries
  NP40-soluble protein abundance (concentration: 1mM): 1.07 ± 0.029; NP40-soluble protein abundance (concentration: 2mM): 1.18 ± 0.13; NP40-soluble protein abundance (concentration: 4mM): 1.14 ± 0.061; NP40-soluble protein abundance (concentration: 6mM): 1.14 ± 0.09; NP40-soluble protein abundance (concentration: 8mM): 1.13 ± 0.051; NP40-soluble protein abundance (concentration: 10mM): 1.19 ± 0.044
UniProt P61960 and related entries
  NP40-soluble protein abundance (concentration: 1mM): 0.981 ± 0.054; NP40-soluble protein abundance (concentration: 2mM): 1.02 ± 0.1; NP40-soluble protein abundance (concentration: 4mM): 0.969 ± 0.056; NP40-soluble protein abundance (concentration: 6mM): 0.9077 ± 0.0081; NP40-soluble protein abundance (concentration: 8mM): 0.922 ± 0.016; NP40-soluble protein abundance (concentration: 10mM): 0.884 ± 0.054
VBP1 (UniProt P61758)
  NP40-soluble protein abundance (concentration: 1mM): 0.912 ± 0.051; NP40-soluble protein abundance (concentration: 2mM): 0.962 ± 0.057; NP40-soluble protein abundance (concentration: 4mM): 0.885 ± 0.032; NP40-soluble protein abundance (concentration: 6mM): 0.89 ± 0.048; NP40-soluble protein abundance (concentration: 8mM): 0.882 ± 0.028; NP40-soluble protein abundance (concentration: 10mM): 0.866 ± 0.029
